Measurements taken from patent US8258094 (dated 2012).

Assay: general procedure: Fmoc solid-phase peptide synthesis; Rink Amide-MBHA resin (Novabiochem), substitution 0.64 mmol/g; HBTU/HOBT, DIEA in NMP; TFFH/HOAt/DMAP/DIEA for Aib1; PyAOP/HOAt/DMAP/DIEA for s
Settings: whole synthesis, HPLC, scale of the general procedure 0.1 mmol

Row | Substance | final HPLC purity [%]
1 | (Ac-Aib^1,Aib^2,10,Glu(NH-hexyl)^3,17)hGhrelin(1-28)-NH2 | 97.5
2 | (Ac-Gly^1,Aib^2,Glu(NH-hexyl)^3,17)hGhrelin(1-28)-NH2 | 99.0
3 | (Aib^2,8,Glu(NH-hexyl)^3,17)hGhrelin(1-28)-NH2 | 99.9
4 | (Aib^2,8,Ser^3,Glu(NH-hexyl)^17)hGhrelin(1-28)-NH2 | 99.0
5 | (Aib^2,Lys(myristyl)^17)hGhrelin(1-28)-NH2 | 99.2
6 | (Aib^2,10,Glu(NH-hexyl)^3,17)hGhrelin(1-28)-NH2 | 100
7 | (Ac-Gly^1,Aib^2,8,Glu(NH-hexyl)^3,17)hGhrelin(1-28)-NH2 | 98.0
8 | (Aib^1,2,10, Glu(NH-hexyl)^3,17)hGhrelin(1-28)-NH2 | 96.5
9 | (Ac-Gly^1,Aib^2,10,Glu(NH-hexyl)^3,Lys(biotinyl)^17)hGhrelin(1-28)-NH2 | 98.4
10 | (Gly(myristyl)^1,Aib^2,Lys(myristyl)^17)hGhrelin(1-28)-NH2 | 98.6
11 | (Ac-Gly^1,Aib^2,10,Glu(NH-hexyl)^3,17)hGhrelin(1-28)-NH2 | 99.0

Same assay, conditions: whole synthesis, scale 0.1 mmol

Row | Substance | isolated mass [mg] | isolated yield [%]
12 | (Ac-Aib^1,Aib^2,10,Glu(NH-hexyl)^3,17)hGhrelin(1-28)-NH2 | 27.1 | 6.3
